Measurements reported in article doi:10.1101/264085 (bioRxiv, 2018).
Numbering of substitutions follows the chain as printed. These are yes or no findings as the source states them, for the method shown. Each block holds one molecule with its values, some of them ahead of it.

Tests used:
[1] = target: T1, NDP52(10-126) (human, UniProt Q13137 10-126); assay: ITC
T1 sequence (looked up): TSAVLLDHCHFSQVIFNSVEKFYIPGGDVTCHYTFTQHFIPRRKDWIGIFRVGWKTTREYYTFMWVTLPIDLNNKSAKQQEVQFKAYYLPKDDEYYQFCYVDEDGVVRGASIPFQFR

[2] = target: T2, NDP52(10-126) V61E (human) (UniProt Q13137); assay: ITC
T2 sequence: T1 sequence (looked up) with V52E

[3] = target: T3, NDP52(10-126) Q106E (human) (UniProt Q13137); assay: ITC
T3 sequence: T1 sequence (looked up) with Q97E

[4] = target: T4, NDP52(10-126) Y104R (human) (UniProt Q13137); assay: ITC
T4 sequence: T1 sequence (looked up) with Y95R

[5] = target: T1, NDP52(10-126); assay: crystal structure
[6] = target: T1, NDP52(10-126); assay: AUC

Molecule: NAP1(33-75) S37K (from UniProt Q9H6S1 33-75) (domain or fragment)
binding [1]: no binding

B2: NDP52(10-126) (domain or fragment, UniProt Q13137 10-126)
chain: T1 sequence (looked up)
binding [5]: no binding
binding [6]: no binding

Second part, the molecule after the results:

binding [1]: no binding
Molecule: NAP1(33-75) A44E (from UniProt Q9H6S1 33-75) (domain or fragment)

binding [2]: no binding
binding [3]: no binding
binding [4]: no binding
B1: NAP1(33-75) (domain or fragment, human, UniProt Q9H6S1 33-75, looked up)
chain: ESVASHFALVTAYEDIKKRLKDSEKENSLLKKRIRFLEEKLIA
